In PubChem BioAssay AID493014 (National Center for Advancing Translational Sciences (NCATS), 2011):
Hit rate of the full screen: of about 340,000 compounds, about 170 (0.05%) were called active. The inconclusive results got no clear call from the source; some entries with a clear call stand among them for comparison. Calls come from the whole dose curve; as a rule, active = well fitted inhibition curve with a large enough effect in the signal ratio, with a control signal flat (not every such curve was filed as active); inconclusive = small, poorly fitted or top-dose-only effect, or effect the other way, or a change in a side signal; inactive = flat fitted curve, though single readings scatter; the % refers to the signal ratio. Where the call is inconclusive, the potency comes from a doubtful curve fit.

experiment: qHTS Assay to Find Inhibitors of Chronic Active B-Cell Receptor Signaling; conditions: ABC-DLBCL IkBa-CBG/CBR reporter, luminescence ratio (green luciferase fused to IkBa over red control in TMD8 lymphoma cells), 4 h; activity change, negative = inhibition: at 46.1 µM (top of the series);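 for activity change, negative = inhibition: plate controls were basal doxycycline-induced cells for no effect and cells given 10 µM MG132 for full effect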
Summary of the method: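 Compounds up to 46 uM were incubated four hours with TMD8 cells whose green CBG68 luciferase is fused to IkappaBalpha; red CBR luminescence normalised the signal, and concentration-effect curves were fitted to fusion, red and ratio data.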
Potency is the fitted concentration of half-maximal effect.

SMILES | Potency | activity change, negative = inhibition
COc1ccc(-n2c(Cc3cccn3C)nnc2SCC(=O)Nc2ccc(C(C)=O)cc2)cc1 | inconclusive: 32.6 µM [falling, single point] | –
Fc1ccccc1CNCCC(Cc1ccccc1)c1ccc2c(c1)OCO2 (stereo unspecified) | inconclusive: 12.6 µM [falling, partial curve, poor fit] | –
CNC(=S)N/N=C/c1c(Cl)cccc1Cl | inconclusive: 32.6 µM [falling, partial curve, poor fit] | –
CCNC(=S)N/N=C1\C(=O)c2cccc3cccc1c23 | – | inconclusive: 26%
CCCC(C)NC(=S)NC(=O)c1cc(S(=O)(=O)N2CCOCC2)ccc1C (stereo unspecified) | – | inactive
O=C(Cc1ccccc1F)Nc1ccc(S(=O)(=O)N2CCCC2)cc1 | – | inactive
COC(=O)c1cc(-c2ccc(Cl)cc2Cl)n[nH]1 | – | inconclusive: 0.873%
COc1cccc(C(=O)NC(=S)Nc2nnn(C)n2)c1 | inconclusive: 18.4 µM [falling, single point] | –
Cc1nn(C(=O)c2ccoc2C)c(N)c1-c1ccccc1 | – | inconclusive: -5.79%
CCCCN(CCCC)C(=O)C1(P(=O)(c2ccccc2)c2ccccc2)CCC1 | – | inconclusive: 0.6%
CCCC(=O)Nc1ccc(N2CCN(C(=O)c3cccs3)CC2)cc1 | – | inconclusive: 23.5%
CC(=O)N(C)C1(c2nnnn2CCOC(=O)Nc2cccc3ccccc23)CCCC1 | – | inconclusive: -7.19%
O=c1c2c(nc3cc(-c4ccccc4)[nH]n13)CCC2 | inconclusive: 7.94 µM [falling, partial curve] | –
O=C(NCCc1ccccn1)c1ccc2nc(Cc3ccccc3F)oc2c1 | – | inconclusive: 1.11%
COc1cc(C(=O)CCN2CCC(c3ccccc3)C2)cc(OC)c1OC (stereo unspecified) | inconclusive: 2.82 µM [rising, partial curve, poor fit] | –
CCSc1nnc(NC(=O)/C=C/c2ccco2)s1 | – | inconclusive: -7.24%
O=C(Nc1cc(S(=O)(=O)N2CCOCC2)ccc1Cl)c1cc2ccccc2o1 | – | inconclusive: 5.07%
Cc1ccc(Nc2cc(C)nc(-c3ccccc3)n2)cc1 | – | inactive
COc1ccc(-c2nn(-c3ccccc3)cc2C(=O)O)cc1 | – | inconclusive: -20.6%
CCOCCCNC(=O)C(c1ccc(OC)cc1)N(Cc1ccc2c(c1)OCO2)C(=O)c1cnccn1 (stereo unspecified) | – | inconclusive: 2.91%
O=c1oc(Nc2ccccc2F)nc2ccccc12 | inconclusive: 5.62 µM [rising, single point] | –
COc1cccc(/C=N/Nc2ccc([N+](=O)[O-])cn2)c1O | – | inconclusive: -15.4%
Cc1ccc(C(=O)NC(C)c2ccncc2)o1 (stereo unspecified) | – | inconclusive: -7.44%
O=C(CN(c1ccccc1)S(=O)(=O)c1ccccc1[N+](=O)[O-])NN=C1CCCCCCC1 | – | inconclusive: 5.72%
COc1cc(/C=N/NC(=S)NCCN2CCOCC2)cc(OC)c1O | – | inconclusive: -1.9%
COc1ccc(Cl)cc1NC(=O)c1cc(S(=O)(=O)N(C)Cc2ccccc2)ccc1F | – | inconclusive: 7.77%

2 entries picked at random from those above:
SMILES | Potency | activity change, negative = inhibition
O=C(Cc1ccccc1F)Nc1ccc(S(=O)(=O)N2CCCC2)cc1 | – | inactive
COc1ccc(Cl)cc1NC(=O)c1cc(S(=O)(=O)N(C)Cc2ccccc2)ccc1F | – | inconclusive: 7.77%

More results follow:

SMILES | Potency | activity change, negative = inhibition
COc1ccc(CN2CCNC(=O)C2CC(=O)NCC2CCOCC2)cc1C (stereo unspecified) | inconclusive: 1.41 µM [falling, partial curve] | –
Cc1cnc(C)c(N2CCN(Cc3cn(C)nc3-c3cccc(Cl)c3)CC2)n1 | – | inconclusive: -21.1%
COc1ccc(Cl)cc1S(=O)(=O)NCc1cccnc1 | – | inconclusive: 13.5%
Cc1ccc(-c2cc(C(=O)N/N=C/c3ccccc3O)n[nH]2)o1 | inconclusive: 20 µM [falling, partial curve, poor fit] | –
Cn1cc(/C=N\NC(=O)c2cccs2)c2ccccc21 | inconclusive: 22.4 µM [falling, partial curve] | –
Cc1cccc(-n2cnc3cc(C(=O)N4CCc5ccccc54)ccc32)c1 | – | inconclusive: -8.4%
Cn1c([N+](=O)[O-])cnc1COC(N)=O | – | inactive
Cc1ccc(S(=O)(=O)NCCn2cnc([N+](=O)[O-])n2)cc1 | – | inactive
COc1ccc(C=O)cc1OS(=O)(=O)c1ccccc1[N+](=O)[O-] | – | inconclusive: -5%
CCC(C)(C)NC(=O)CCn1c(-c2ccccc2)cc(C(C)=O)c1C | inconclusive: 35.5 µM [falling, single point] | –
Cn1ccc(C(=O)N/N=C/c2c[nH]c3ccccc23)n1 | inconclusive: 4.47 µM [falling, single point] | –
COc1ccc2cc(CN(CC3CCCO3)S(=O)(=O)c3ccc(C(C)=O)cc3)c(=O)[nH]c2c1 (stereo unspecified) | – | inactive
Cc1cc(NCc2ccccn2)ccc1Br | – | inconclusive: 7.84%
CC(C)C[C@H](NC(=O)c1nc[nH]c1C(=O)N1CCN(C(=O)OC(C)(C)C)CC1)C(=O)OCc1ccccc1 | – | inactive
Cc1cnc(NC(=O)C2COc3ccccc3O2)s1 (stereo unspecified) | inconclusive: 10 µM [falling, partial curve] | –
CC(=O)C1=C(S(=O)(=O)c2ccc(C)cc2)CS(=O)(=O)C1 | – | inconclusive: 0.76%
c1ccc(CN2CCN(CCOCCOc3cccc4ccccc34)CC2)cc1 | inconclusive: 25.1 µM [falling, partial curve, poor fit] | –
CC(/C=C1\SC(=S)N(NC(=O)c2ccc(O)cc2)C1=O)=C\c1ccccc1 | inconclusive: 20.6 µM [falling, single point] | –
Cc1ccc(-c2cc(-c3ccccc3)no2)c(O)c1 | inconclusive: 4.61 µM [falling, partial curve] | –
Cc1noc(C)c1CSCC(=O)Nc1cc(S(=O)(=O)N2CCOCC2)ccc1OCC(F)(F)F | – | inactive
O=C(/C=C/Nc1ccccc1C(=O)O)c1cccs1 | inconclusive: 29.1 µM [rising, single point] | –
CCSc1nncn1/N=C/c1ccc(OC)c(OC)c1 | – | inconclusive: -17.2%
Cc1cc(=O)n(-c2ccc(Cl)cc2)c(=O)[nH]1 | – | inconclusive: 15%
C=CCNC(=O)Nc1ccc2nc(C)sc2c1 | – | inactive
O=C(c1ccoc1)N1CCC2(CC1)Oc1ccc(Cl)cc1C(=O)C21CC(c2cccnc2)=NO1 (stereo unspecified) | – | inconclusive: -4.32%

Some of the entries so far, with each value named.
Cc1ccc(C(=O)NC(C)c2ccncc2)o1 (stereo unspecified)
  activity change, negative = inhibition: inconclusive: -7.44%
O=C(CN(c1ccccc1)S(=O)(=O)c1ccccc1[N+](=O)[O-])NN=C1CCCCCCC1
  activity change, negative = inhibition: inconclusive: 5.72%
